Experimental data: the supplement of paper PMC4604168 (melanoma cell lines)
The other results are listed elsewhere or left out. Single values are uncertain, as repeats are few or missing.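 Cells were imaged in 1,536-well plates, and nuclei stained with an antibody against cleaved PARP were counted against all DNA-stained nuclei to give the apoptosis fraction. Screening doses were chosen to leave most cells alive, and resting and induced cleaved-PARP levels differ strongly between cell lines.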

These compounds were tested on MEL-HO (assay: cleaved PARP positive nuclei fraction relative to DMSO control; melanoma cells; higher = more apoptosis). Conditions: library dose: low library concentration; 72 h.

| Structure (SMILES) | cleaved PARP positive nuclei fraction [%] |
| --- | --- |
| Cn1c(=O)n(-c2ccc(C(C)(C)C#N)cc2)c2c3cc(-c4cnc5ccccc5c4)ccc3ncc21 + N.N.[Cl][Pt][Cl] [cisplatin] (first compound 0.004 µM, partner dose 1.6 µM) | 155 |
| CC(=O)O[C@@]12CO[C@@H]1C[C@H](O)[C@@]1(C)C(=O)[C@H](O)C3=C(C)[C@@H](OC(=O)[C@H](O)[C@@H](NC(=O)OC(C)(C)C)c4ccccc4)C[C@@](O)([C@@H](OC(=O)c4ccccc4)[C@H]21)C3(C)C [Docetaxel] + C[As](C)SC[C@H](NC(=O)CC[C@H](N)C(=O)O)C(=O)NCC(=O)O [Darinaparsin] (first compound 0.0001 µM, partner dose 0.4 µM) | 146 |
| C[C@]12O[C@H](C[C@]1(O)CO)n1c3ccccc3c3c4c(c5c6ccccc6n2c5c31)CNC4=O [Lestaurtinib] + Cn1c(Nc2ccc(C(F)(F)F)cc2)nc2cc(Oc3ccnc(-c4ncc(C(F)(F)F)[nH]4)c3)ccc21 [CHIR265] (first compound 0.004 µM, partner dose 0.08 µM) | 79.8 |
| Cn1cc(C2=C(c3cn(C4CCN(Cc5ccccn5)CC4)c4ccccc34)C(=O)NC2=O)c2ccccc21 [Enzastaurin] + Cc1cc(Nc2cc(N3CCN(C)CC3)nc(/C=C/c3ccccc3)n2)n[nH]1 [ENMD2076] (first compound 0.8 µM, partner dose 0.04 µM) | 38.4 |
| Cc1cc(Nc2cc(N3CCN(C)CC3)nc(Sc3ccc(NC(=O)C4CC4)cc3)n2)n[nH]1 [Tozasertib] + N.N.[Cl][Pt][Cl] [cisplatin] (first compound 0.006 µM, partner dose 1.6 µM) | 132 |
